± gives the standard deviation. The entries are a selection whose mix differs from that of the whole data set. The uncertainty is large for many entries.
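Also: 1 nM active piRISC with 0.1 nM target library at 33 °C single turnover.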

This assay deals with MILI (PIWIL2) piRISC loaded with piRNA #2 (26 nt). The assay can be described thus: pre-steady-state target cleavage rate (min^-1); MIWI and MILI are mouse PIWI proteins and EfPiwi is from a freshwater sponge; tags in brackets are library labels; higher = faster piRNA-guided slicing of the target. The note with it: guide: piRNA #2 5'p-UUAGGUAACCCAGUAGAUCCAGAGGA; auxiliary factor: 500 nM mouse GTSF1. The procedure, abridged:
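A transcribed, DNA-blocked target RNA library […] was incubated at 33 °C for 0–8 or 0–960 min with 1 nM active affinity-purified piRISC carrying one synthetic guide, in HEPES–potassium acetate buffer with or without 500 nM GTSF1 partner protein. Uncleaved targets were then sequenced and normalised to depth and to weakly complementary targets. Data from three trials were pooled, with k3 capped at 0.0001 min^-1, and a burst-and-steady-state fit yielded the pre-steady-state cleavage rate.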
Take CUUAAGGACUGGAUCUACUGGGUUACCAUA: the “pre-steady-state target cleavage rate” value came out at 0.00402 ± 0.0085. In the case of CUUAAGGAGAGGAUCAACUGCGUUACCUAA, the “pre-steady-state target cleavage rate” value stood at 0.00124 ± 0.0086.

CUUAAGGAGUGGAUCUUCUGGGUAACCUAA: the “pre-steady-state target cleavage rate” value was 0.0035 ± 0.0057. In the case of CUUAAGGACUGGAUCUACUGGGUUACUCUAA it was 0.00679 ± 0.0086; in that of CUUAAGGAGACCAUGCUACUGGGUUACCUAA, 0.000862 ± 0.011; in that of CUUAAGGAGACUAUCUACUGGGUUACCUAA, 0.00184 ± 0.0053. The value for CUUAAGGAGACCUUCUACUGGGUAUACCUAA was 0.00085 ± 0.013; that for CUUAAGGAGAGGUUCUACUGCGUUACCUAA was 0.00134 ± 0.0058; that for CUUAAGGACUGGAUCUACUGGGUUACCUGA was 0.00746 ± 0.008. The value for CUUAAGGUCUGGAUCUACUGGCUUACCUAA was 0.00125 ± 0.0091. On to CUUAAGGAGACCUAGUACUAGGGUUACCUAA, for which the “pre-steady-state target cleavage rate” value was 0.000143 ± 0.04. Take CUUAAGGUCUGGAUCUACUGCGUUAGCUAA: the “pre-steady-state target cleavage rate” value is 0.00058 ± 0.018. For CUUAAGGAGAGGAGUCUACUGGGUUACCUAA, the “pre-steady-state target cleavage rate” value came to 0.00217 ± 0.0047. The value for CUUAAGGAGACCUAGAUGUGGGUUACCAUA was 0.000121 ± 0.043; that for CUUAAGGAGUGGAUCUUCUGGGUUACGUAA was 0.000577 ± 0.016; that for CUUAAGGACUGGAUCUACUGCGUUACGUAA was 0.000304 ± 0.035. The value for CUUAAGGAGUGGAUGUACUGGGUUACCAAA was 0.00385 ± 0.009; that for CUUAAGGAGAGGAUCUACUAGGGUUACCUAA was 0.00118 ± 0.0051; that for CUUAAGGAGACCAUCUACUGGGUAACCUUA was 0.000199 ± 0.048. The value for CUUAAGGACAGGAUCUACUGCGUUACCUAA was 0.00189 ± 0.013. On to CUUAAGGACUGCAUCUACUGGGUUACCAAA, for which the “pre-steady-state target cleavage rate” value was 0.00166 ± 0.013. In the case of CUUAAGCUCUGGAUCUACAUGGGUUACCUAA it was 0.000147 ± 0.035; in that of “CUUAAGGAGACCAUCUACUGGGUUACCUAU [g2:g18:cont:t1U]”, 0.00168 ± 0.0043. The value for CUUAAGGAGACGAUCUACUGGCUAACCUAA was 0.000132 ± 0.048; that for CUUAAGCUCUGGAUCUACUGCGAUACCUAA was 0.000342 ± 0.025; that for CUUAAGGAGACCUACUACUGGGUGUACCUAA was 0.000261 ± 0.041.

Turning to CUUAAGGAGAGGGUCUACUGGGUUACCUAA, the “pre-steady-state target cleavage rate” value was determined as 0.00196 ± 0.0043.

Take CUUAAGGAGACCAUCUACUGCGUUACCUAA: the “pre-steady-state target cleavage rate” value came to 0.00128 ± 0.0039.

Turning to CUUAAGGUCUGGAUCUACUGGAGUUACCUAA, the “pre-steady-state target cleavage rate” value stood at 0.00106 ± 0.012. In the case of CUUAUCCACUGGAUCUACUGGGUUAGCUAA it was 0.00417 ± 0.0052; in that of CUUAAGGAGACCUACUUCUGCGUUACCUAA, 0.000361 ± 0.011; in that of CUUAAGGAGACCUUCUACUGCCUUACCUAA, 0.000657 ± 0.0081.

As for CUUAAGGUCAGGAUCUACUGGGUUACGUAA, the “pre-steady-state target cleavage rate” value was 0.00305 ± 0.0094. CUUAAGGAGACCUUCUACUGGGUAACCUAA: the “pre-steady-state target cleavage rate” value is 0.000547 ± 0.01. In the case of CUUAAGGAGACCUUCUACUGGCAUACCUAA it was 0.000117 ± 0.041. In the case of CUUAAGGAGACCUUCUACUGGAUUACCUAA it was 0.000542 ± 0.019.

In the case of CUUAAGGAGACCUAGAUCUGCCUUACCUAA, the “pre-steady-state target cleavage rate” value turned out to be 0.000103 ± 0.043. Turning to CUUAAGGAGACCUUCUACUGGGUUACCAA, the “pre-steady-state target cleavage rate” value was found to be 0.00066 ± 0.013. As to CUUAACCUCUGGAUCUACUGGGUUUCCUAA, the “pre-steady-state target cleavage rate” value was 0.224 ± 0.062. The value for CUUAAGGACUGGAUCAACUGCGUUACCUAA was 0.00143 ± 0.021.

Take CUUAAGGAGACCUUCUACUGGGUUAACUAA: the “pre-steady-state target cleavage rate” value worked out at 0.000255 ± 0.035. The value for CUUAAGGAGUGGAACUACUGCGUUACCUAA was 0.000522 ± 0.025; that for CUUAAGGAGACGUUCUACUGGGUAACCUAA was 0.000694 ± 0.013. As to CUUAAGGAGACGAUACUACUGGGUUACCUAA, the “pre-steady-state target cleavage rate” value was determined as 0.000115 ± 0.034. The value for CUUAAGGACUGGAUCUACUGCGUUUCCUAA was 0.000394 ± 0.037; that for CUUAUCCUCUGGAUCUACUGGCUUACCUAA was 0.0034 ± 0.0034. As for CUUAAGGAGAGGAUCAACUGGGUUACCUAA, the “pre-steady-state target cleavage rate” value came to 0.00307 ± 0.0032.

CUUAAGCUCUGGAUCUACUGCGUUAGCUAA: the “pre-steady-state target cleavage rate” value came out at 0.00115 ± 0.0099. In the case of CUUAAGGAGACGAUCUACUGAGUUACCUAA it was 0.00282 ± 0.0034; in that of CUUAAGGAGUGCAUCUACUGGGUUAGCUAA, 0.00119 ± 0.0082. The value for CUUAAGGAGUGGUUCUACUGCGUUACCUAA was 0.00235 ± 0.0064; that for CUUAAGGAGACCAACUACUGGGUUACCUAA was 0.00106 ± 0.0072. In the case of CUUAAGGACUGGUUCAACUGGGUUACCUAA it was 0.00369 ± 0.01. Take CUUAAGGAGACCUUCAACUGGGUUAGCUAA: the “pre-steady-state target cleavage rate” value was 0.000102 ± 0.057. In the case of CUUAACCUCUGGUACUACUGGGUUACCUAA it was 0.256 ± 0.074. The value for CUUAAGGACUGGAUCAACUGGGUUACGUAA was 0.0032 ± 0.01. CUUAAGGAGAGGAUCUACUGGGAUACCUUA: the “pre-steady-state target cleavage rate” value is 0.000201 ± 0.03.

In the case of CUUAUCCUCUGGAUCCUACUGGGUUACCUAA, the “pre-steady-state target cleavage rate” value was 0.0665 ± 0.018. In the case of CUUAAGCUCUGGAUCUAGUGCGUUACCUAA it was 0.0017 ± 0.0059; in that of CUUAAGGAGUGCAUCUUCUGGGUUACCUAA, 0.00194 ± 0.0058; in that of CUUAAGGAGACCUUCUACUGGGAUAGCUAA, 0.000371 ± 0.02. The value for CUUAAGGAGACGAUCUACUGCGGUUACCUAA was 0.0004 ± 0.026; that for CUUAUCCUCUGGAUCUACUGGGUUCACCUAA was 0.0872 ± 0.017; that for CUUAAGGAGACGAUCUACUCGGUUACCUAA was 0.001 ± 0.013. In the case of CUUAAGGAGACCAUCUACUGGGUACCUAA it was 0.000116 ± 0.036. Take CUUAAGGAGACCUAGUACACCGUUACCUAA: the “pre-steady-state target cleavage rate” value was 0.000315 ± 0.044.

On to CUUAUCCUCUGGAUCUACUGGCGUUACCUAA, for which the “pre-steady-state target cleavage rate” value was 0.00253 ± 0.0048. In the case of CUUAAGGAGACGUUCUACUGGGUUUCCUAA, the “pre-steady-state target cleavage rate” value came to 0.000897 ± 0.012. In the case of CUUAAGGAGUGGAUCUACUGGGUUACAUAA it was 0.00313 ± 0.0045; in that of CUUAAGGAGACCUUCUACUGGGUUUCCAAA, 0.000514 ± 0.016; in that of CUUAAGGAGACCUAGUAGUGGGUUACCUAA, 0.000179 ± 0.026. In the case of CUUAAGGAGAGGAUCUACUGGGAAUCCUAA it was 0.000135 ± 0.034.

The values above are taken from the supplement of paper PMC10338343.
